Consider 1 molecule from patent publication US20230272047A1.

These are yes or no findings as the source states them, for the method shown. Sequences can lack the tags named with a protein.

The target in assay [1] is IL17. Briefly: yeast surface display, flow cytometry (PE signal). On the technique in general: In flow cytometry, cells or beads pass a laser one at a time.
Assay [2] deals with CTLA4. As to the kind of experiment: yeast surface display, flow cytometry (PE signal).

B1: 2DS25 displayed on the yeast surface as Myc tagged Aga2p fusion protein (designed binder, not shown: large carriers; small tags and cut ends)
chain: DEEEIQKAIEELLRKGVSEEEAAIIIAQRFNVAVVVVVQDERQAKHISEYIRRYIPEADVILFANIVVIKVETEELRKRVWEAAQKAY
As to B1, the binding result in assay [1] and in assay [2] was “no binding” each time.
